Positions count from the first letter of the chain named. Numbers in names are those of the source. These are yes or no findings as the source states them, for the method shown. In cells and extracts the contact can be indirect. Binding calls can cover weak binding; strength is not graded here. Sequences can lack the tags named with a protein.
B1: Atp5 (oligomycin sensitivity conferring protein, OSCP) (protein, UniProt P09457 18-212)
chain: ASKAAAPPPVRLFGVEGTYATALYQAAAKNSSIDAAFQSLQKVESTVKKNPKLGHLLLNPALSLKDRNSVIDAIVETHKNLDGYVVNLLKVLSENNRLGCFEKIASDFGVLNDAHNGLLKGTVTSAEPLDPKSFKRIEKALSASKLVGQGKSLKLENVVKPEIKGGLIVELGDKTVDLSISTKIQKLNKVLEDSI
B2: Atp5, mildly overexpressed from a galactose-inducible promoter (untagged) (protein, UniProt P09457 18-212)
chain: B1 chain
B3: Atp5^G183A, mildly overexpressed from a galactose-inducible promoter (untagged) (protein, UniProt P09457 18-212)
chain: B1 chain with G166A

Sequences of proteins named here, by UniProt entry; tags and fusion partners are left off. A change or cut given only in a name is not applied to a line headed by its entry.
UniProt P0CS90: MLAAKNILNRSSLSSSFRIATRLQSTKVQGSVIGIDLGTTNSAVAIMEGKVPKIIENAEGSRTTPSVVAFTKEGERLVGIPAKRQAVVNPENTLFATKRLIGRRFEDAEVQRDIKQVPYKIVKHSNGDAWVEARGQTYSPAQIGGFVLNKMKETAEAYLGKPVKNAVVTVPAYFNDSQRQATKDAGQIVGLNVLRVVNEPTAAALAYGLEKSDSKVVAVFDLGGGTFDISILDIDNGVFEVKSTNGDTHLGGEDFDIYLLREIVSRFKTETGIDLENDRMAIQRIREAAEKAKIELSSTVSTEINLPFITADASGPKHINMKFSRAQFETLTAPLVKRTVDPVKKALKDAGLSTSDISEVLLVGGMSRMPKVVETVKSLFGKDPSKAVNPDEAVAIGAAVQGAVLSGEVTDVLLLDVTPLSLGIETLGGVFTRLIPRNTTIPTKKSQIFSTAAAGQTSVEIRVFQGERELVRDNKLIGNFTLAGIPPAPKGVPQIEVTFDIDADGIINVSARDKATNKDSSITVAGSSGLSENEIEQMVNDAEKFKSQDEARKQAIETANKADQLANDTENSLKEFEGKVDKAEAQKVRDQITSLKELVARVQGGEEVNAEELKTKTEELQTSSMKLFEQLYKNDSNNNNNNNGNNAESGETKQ

These binders were tested against mutated mtHsp70 of the temperature-sensitive allele ssc1-62 (S. cerevisiae) (UniProt P0CS90) (assay: pull-down; mtHsp70 with its bound proteins captured on Mge1His-coated Ni-NTA agarose from digitonin lysates of mitochondria (wild type, ρ0, atp3∆, atp4∆, atp5∆, atp7∆, atp14∆, ina17∆, ina22∆, ssc1-62, cells overexpressing Atp5 or Atp5^G183A); SDS-PAGE and immunodetection).

Q: Which binding does the source give for B1 here?
A: binds weakly

Q: Which binding does the source give for B2 here?
A: no binding

Q: With B3 as the binder, how does the binding read?
A: no binding

From article PMC9810599
